Assay [1] addresses T1, cLUC-PhS3-RNase (wild type) (Petunia hybrida) (UniProt Q40875).
T1 sequence: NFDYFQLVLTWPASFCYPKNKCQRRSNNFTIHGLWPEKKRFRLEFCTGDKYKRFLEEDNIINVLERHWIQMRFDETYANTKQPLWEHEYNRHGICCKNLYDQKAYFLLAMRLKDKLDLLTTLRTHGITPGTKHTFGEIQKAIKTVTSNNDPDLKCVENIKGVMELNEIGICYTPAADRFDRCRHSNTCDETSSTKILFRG
The assay can be described thus: split reporter.

Assay [2] has as its target T2, cLUC-PhS3-RNase MI (T102A, K103R) (Petunia hybrida) (UniProt Q40875).
T2 sequence: T1 sequence with T80A, K81R
The assay can be described thus: split reporter.

Assay [3] concerns the target T3, cLUC-PhS3-RNase MII (T153A, K154R, K217R) (Petunia hybrida) (UniProt Q40875).
T3 sequence: T1 sequence with T131A, K132R, K195R
The experiment in a line: split reporter.

The target in assay [4] is T4, cLUC-PhS3-RNase MK (K103R, K154R, K217R) (Petunia hybrida) (UniProt Q40875).
T4 sequence: T1 sequence with K81R, K132R, K195R
The assay can be described thus: split reporter.

Assay [5] addresses T5, cLUC-PhS3-RNase MT (T102A, T153A) (Petunia hybrida) (UniProt Q40875).
T5 sequence: T1 sequence with T80A, T131A
The assay can be described thus: split reporter.

Assay [6] has as its target T6, MBP-tagged PhS3-RNase (wild type, without signal peptide) (Petunia hybrida) (UniProt Q40875).
T6 sequence: T1 sequence
The experiment in a line: pull-down.

The target of assay [7] is T7, MBP-tagged PhS3-RNase MI (T102A, K103R; without signal peptide) (Petunia hybrida) (UniProt Q40875).
T7 sequence: T1 sequence with T80A, K81R
The experiment in a line: pull-down.

For assay [8], the target named is T8, MBP-tagged PhS3-RNase MII (T153A, K154R, K217R; without signal peptide) (Petunia hybrida) (UniProt Q40875).
T8 sequence: T1 sequence with T131A, K132R, K195R
The experiment in a line: pull-down.

The target of assay [9] is T9, MBP-tagged PhS3-RNase MK (K103R, K154R, K217R; without signal peptide) (Petunia hybrida) (UniProt Q40875).
T9 sequence: T1 sequence with K81R, K132R, K195R
The assay can be described thus: pull-down.

The target in assay [10] is T10, MBP-tagged PhS3-RNase MT (T102A, T153A; without signal peptide) (Petunia hybrida) (UniProt Q40875).
T10 sequence: T1 sequence with T80A, T131A
The experiment in a line: pull-down.

Assay [11] has as its target T11, cYFP-PhS3-RNase (wild type, without signal peptide) (Petunia hybrida) (UniProt Q40875).
T11 sequence: T1 sequence
The assay can be described thus: split reporter.

Assay [12] has as its target T12, cYFP-PhS3-RNase MI (T102A, K103R; without signal peptide) (Petunia hybrida) (UniProt Q40875).
T12 sequence: T1 sequence with T80A, K81R
The assay can be described thus: split reporter.

The target in assay [13] is T13, cYFP-PhS3-RNase MII (T153A, K154R, K217R; without signal peptide) (Petunia hybrida) (UniProt Q40875).
T13 sequence: T1 sequence with T131A, K132R, K195R
The experiment in a line: split reporter.

Assay [14] deals with T14, cYFP-PhS3-RNase MK (K103R, K154R, K217R; without signal peptide) (Petunia hybrida) (UniProt Q40875).
T14 sequence: T1 sequence with K81R, K132R, K195R
The assay can be described thus: split reporter.

Assay [15] deals with T15, cYFP-PhS3-RNase MT (T102A, T153A; without signal peptide) (Petunia hybrida) (UniProt Q40875).
T15 sequence: T1 sequence with T80A, T131A
The assay can be described thus: split reporter.

In paper doi:10.1101/2020.12.14.422713 one finds binding data, which are given here for 4 substances.

Residue numbers refer to the chain shown, from its start. Results are given in words; binding and its absence hold for the method and conditions named. Binding seen in cells or lysates may run through a third protein. A result given as binding can be weak or reduced; the word gives no strength. Sequences can lack the tags named with a protein.

With PhS3LSLF1-nLUC (Petunia hybrida), the binding result in assay [1], in assay [2], in assay [3], in assay [4] and in [5] was “binds” each time.

On to PhS3SLF1-nLUC (Petunia hybrida), for which the binding result is recorded as “binds” in assay [1]; “binds weakly” in assay [2]; “binds weakly” in assay [3]; “binds” in [4]; “binds” in assay [5].

For SUMO-His-PhS3LSLF1 (Petunia hybrida), the binding entry in [6], in assay [7], in assay [8], in assay [9] and in assay [10] was “binds” each time.

Regarding nYFP-PhS3LSLF1 (Petunia hybrida), the binding entry in assay [11], in assay [12], in [13], in assay [14] and in assay [15] was “binds” each time.
